The results in this text go back to publication PMC12002642.

Assay [1] concerns the target T1, Ppn1 (PPP1R10 ortholog), full-length, yeast two-hybrid fusion (S. japonicus) (UniProt B6K4E4).
T1 sequence: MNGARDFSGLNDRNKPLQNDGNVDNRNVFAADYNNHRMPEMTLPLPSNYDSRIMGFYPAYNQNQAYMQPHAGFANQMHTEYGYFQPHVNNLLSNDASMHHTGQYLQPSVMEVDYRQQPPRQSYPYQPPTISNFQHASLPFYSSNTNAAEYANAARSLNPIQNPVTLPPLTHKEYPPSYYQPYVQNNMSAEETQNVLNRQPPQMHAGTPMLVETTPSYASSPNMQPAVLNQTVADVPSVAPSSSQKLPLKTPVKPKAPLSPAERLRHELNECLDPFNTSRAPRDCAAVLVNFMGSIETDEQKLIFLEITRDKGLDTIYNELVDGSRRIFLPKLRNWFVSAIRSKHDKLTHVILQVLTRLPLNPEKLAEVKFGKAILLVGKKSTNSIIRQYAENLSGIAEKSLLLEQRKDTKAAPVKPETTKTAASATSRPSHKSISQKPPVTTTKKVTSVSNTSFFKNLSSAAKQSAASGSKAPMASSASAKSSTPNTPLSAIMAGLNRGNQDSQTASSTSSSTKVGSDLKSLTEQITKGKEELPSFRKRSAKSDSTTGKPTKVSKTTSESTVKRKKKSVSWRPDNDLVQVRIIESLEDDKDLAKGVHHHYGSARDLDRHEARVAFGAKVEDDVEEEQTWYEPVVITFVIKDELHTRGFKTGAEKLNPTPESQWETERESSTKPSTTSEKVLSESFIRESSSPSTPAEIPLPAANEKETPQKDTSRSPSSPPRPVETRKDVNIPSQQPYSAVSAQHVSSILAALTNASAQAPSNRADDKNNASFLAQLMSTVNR
Description: two-hybrid; pGBKT7 and pGADT7 plasmids co-transformed into S. cerevisiae AH109; growth on CM -Leu-Trp-His (medium interaction) and CM -Leu-Trp-His-Ade (strong interaction).

Assay [2] has as its target Pab2 N-terminal domain (N), yeast two-hybrid fusion (S. japonicus). The description is as above.

These are yes or no findings as the source states them, for the method shown. For part of these data: Binding can be weak; no strength is given. Tags and fused reporters may be left off the sequences shown.

For “Pab2ΔN (Pab2 lacking the N-terminal domain), yeast two-hybrid fusion (S. japonicus) (domain or fragment)”, the binding entry in assay [1] is on record as “no binding”. On the same count and under the same terms, to “Pab2ΔRRM (Pab2 lacking the RNA recognition motif), yeast two-hybrid fusion (S. japonicus) (domain or fragment)” belongs “no binding”; to “Pab2 N-terminal domain (N), yeast two-hybrid fusion (S. japonicus) (domain or fragment)”, “no binding”; to “Pab2 RNA recognition motif (RRM) fragment, yeast two-hybrid fusion (S. japonicus) (domain or fragment)”, “no binding”.

B1: Red5 (ZC3H3 ortholog), full-length, yeast two-hybrid fusion (protein, UniProt B6JVP1 1-380)
chain: MAGTNSEEQKLLEQIASLAGAINKYKYSQEQIHHQSAQKPDGANSTNWRKRKLSHWSTSRNQTLVNNPPPSPSIKGAAAKTQDDVSSMSEDATEASMFVARKDRHMQLIHKSIYEQDAQARQASMETARAKLNEKRKAVAEKKTQQKLTDPNNHLLTIQELPFIINDKDPKFIECMDTLAQLPKHIYHEGRAYVLMNRSMYKFVGTSPYSVYCRYYNMVGYCAKGGKCMYVHDPAHKYVCPRFLSGNCPNGEQCSLSHDRDEKRTPACRYFLKGKCTNPVCRYAHVHYNESVPVCPDFSEYGMCENGLHCKMKHILKCTEYALKGACHNAKCRLYHPPKELESTEKKEGAVSAEKMQGEQKQDSESSSTASGATPIFISL
Regarding B1, in assay [2], the binding result is “binds”.

B2: Rmn1 (RBM26·27 ortholog), full-length, yeast two-hybrid fusion (protein, UniProt B6K5G4 1-589)
chain: MALLRHESAEEEVRQLCYSQLEDFLRQETIPFVDKVFDVLKERSYLEKEMKSPKGHLSTAATIPVSAPLAEKGPVAASNERPNAANAQANAPPFGGHQHPTLPAGFMPNPSGPPFPFPLPMLNPAAAAAAAAAAAAAAASGEFSPFQGSNNSSQASPMDIASPASPFPPPFQPRGSRRRCRDYETKGFCLRGDKCMFEHSSQPVRVSSPNHQNFAYDHRAPSRPIQHYSPRYIKGPSRDPSSTILQMRNVPPEYLDEQRIREFFEKFGPLEKVELHQTQSYAILHFKDHASAEAAWGSPEPIFNNRFIKVFWQATNTPSRGPPGQRRMTSSRVSHYTPYSRPQPRGEVVQEEDPVVTAQSPDFLKRVEEKQRAFEERRKKLEENKRKLEEINRKKQELALRQLKEQQVLMEKLKSADPASQSKVDILKTQLALLKAEADSLGIQVGSQNSPTPSTTTATSKPTVSYSHHPNASVGYSHAPARGRGGRFSFASMSLDNRPRRIQVNNVSPDKNELLLQHLLSVGEYESVTEPEPNTRMVNFRSRRAAEQFYDNVQTIDGLRDISLQWIPNGVAATQPSENQTDATMGNES
Regarding B2, the binding result in assay [2] was “binds”.
